# Test results: paper PMC12320246
# The chains behind the UniProt entries cited, without tags or fusion partners.
# UniProt O00425: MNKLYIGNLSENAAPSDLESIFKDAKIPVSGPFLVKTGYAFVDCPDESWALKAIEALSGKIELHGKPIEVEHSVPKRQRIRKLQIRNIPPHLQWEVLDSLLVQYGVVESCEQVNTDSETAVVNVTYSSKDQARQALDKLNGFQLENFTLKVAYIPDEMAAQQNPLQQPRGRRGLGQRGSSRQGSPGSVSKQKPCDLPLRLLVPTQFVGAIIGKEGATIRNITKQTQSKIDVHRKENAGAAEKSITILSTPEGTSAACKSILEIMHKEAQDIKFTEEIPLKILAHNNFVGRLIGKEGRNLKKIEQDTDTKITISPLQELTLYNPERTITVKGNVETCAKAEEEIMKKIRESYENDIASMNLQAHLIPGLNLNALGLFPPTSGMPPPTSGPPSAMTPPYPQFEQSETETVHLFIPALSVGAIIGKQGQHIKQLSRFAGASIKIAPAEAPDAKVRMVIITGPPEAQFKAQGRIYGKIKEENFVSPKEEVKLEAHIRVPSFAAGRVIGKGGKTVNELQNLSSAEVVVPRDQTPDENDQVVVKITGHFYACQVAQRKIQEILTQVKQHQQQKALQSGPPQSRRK
# No constants are given. Whether binding was seen depends on the method and setting. In cells and extracts the contact can be indirect. Here binding means that the protein was enriched with, or labelled near, the bait; the list need not be complete.
# Target: T1, Olfactomedin-like 1 (OLFML1), endogenously expressed (human (endogenous in HCT8 and CaCo2)) (UniProt Q6UWY5)
# T1 sequence: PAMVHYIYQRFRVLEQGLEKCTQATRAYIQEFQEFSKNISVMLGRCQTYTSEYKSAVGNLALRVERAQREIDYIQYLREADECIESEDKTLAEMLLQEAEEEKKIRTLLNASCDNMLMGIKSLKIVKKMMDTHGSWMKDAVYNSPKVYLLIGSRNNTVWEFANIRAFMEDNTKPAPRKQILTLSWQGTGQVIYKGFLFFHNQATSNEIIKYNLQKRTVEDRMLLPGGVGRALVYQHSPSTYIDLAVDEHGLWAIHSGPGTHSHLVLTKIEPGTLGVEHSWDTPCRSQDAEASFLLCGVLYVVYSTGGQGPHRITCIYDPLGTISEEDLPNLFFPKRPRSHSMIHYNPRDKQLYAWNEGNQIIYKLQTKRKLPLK
# Experiment: affinity purification with mass spectrometry; HCT8 and CaCo2 lysates immunoprecipitated with anti-OLFML1 antibody or rabbit IgG; silver staining; differential band at about 70 kDa analysed by LC-MS
substance,measurement,value
"Insulin-like growth factor 2 mRNA-binding protein 3 (IGF2BP3), endogenously expressed (from UniProt O00425 1-579)",binding,binds
